Source: PubChem BioAssay AID1688 (National Center for Advancing Translational Sciences (NCATS), 2009)
The campaign covered roughly 220,000 compounds. About 2,400 (1.1%) were called active. Inconclusive means that the source gave no clear call. Such entries were picked first, then a sample of the others. Calls follow the shape of the dose curve; as a rule, active = well fitted inhibition curve with a large enough effect; inconclusive = small, poorly fitted or top-dose-only effect, or effect the other way; inactive = no such curve, though single readings can be large or run the other way. Potencies of inconclusive entries are doubtful fits and often do not repeat.

Assay: qHTS Multiplex Assay to Identify Dual Action Probes in a Cell Model of Huntington: Aggregate Formation (GFP); also: nearly all actives have a fitted effect of over 60% in size
Details: PC12 HttQ103-GFP aggregates, Acumen cytometry, 40 h; activity change, negative = inhibition: at 46.1 µM (top of the series) unless noted
Outline: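 Multiplexed with ATP-based cell death, this channel scores GFP aggregates in PC12 cells expressing inducible HTTex1-Q103-GFP. Induction used 100 nM tebufenozide; compounds were tested in concentration series.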
% is scaled to controls: 0 for no effect and ±100 for the full control effect; potency is read from the fitted curve at half-maximal effect.

SMILES	Potency	activity change, negative = inhibition
CC1(C)Cc2nc3sc4c(SCC(=O)NCc5ccco5)ncnc4c3cc2CO1	inconclusive: 31.6 µM [activator, single point]	
CC(C)(C)NC(=O)CSCc1c(Cl)cccc1Cl	inactive	
COc1ccc(Nc2nc(Nc3ccc(OC)cc3)nc(-n3[nH]c(=O)c(C)c3C)n2)cc1	inconclusive: 35.5 µM [inhibitor, single point]	
Cn1c(C(O)c2ccccc2)nc(Cl)c1Cl (stereo not drawn)	inconclusive: 0.316 µM [inhibitor, partial curve]	
CCOC(=O)c1c(-c2ccc(OC)c(OC)c2)csc1NC(=O)C1CCCO1 (stereo not drawn)	inconclusive: 12.6 µM [inhibitor, single point]	
COc1cc(C2Nc3c(F)cccc3C3C=CCC32)cc(Br)c1OC (stereo not drawn)	inconclusive: 10 µM [activator, partial curve]	
O=C(NCC1CCCO1)c1ccc(Oc2ccc([N+](=O)[O-])cc2)cc1 (stereo not drawn)	inconclusive: 11.2 µM [inhibitor, single point]	
CCCCN(C)C1=CC2=CC(=C(C#N)C#N)CCC2CC1 (stereo not drawn)	active: 0.316 µM	
O=C(OCC(=O)N1CCCC1)c1ccco1	inconclusive: 0.562 µM [activator, full curve]	
Cc1ccc(-c2nc(COC(=O)c3c(C)noc3C)cs2)cc1	inconclusive: 1.78 µM [inhibitor, partial curve]	
CCc1sc(C(=O)Nc2cccc(C(C)=O)c2)cc1C	inconclusive: 0.398 µM [activator, partial curve]	
CCN(CC)S(=O)(=O)c1cccc(NC(=S)NC(=O)/C=C/c2ccc(S(=O)(=O)N3CCOCC3)cc2)c1	inconclusive: 7.94 µM [activator, partial curve]	
O=C(CNC(=S)N(Cc1ccccc1)Cc1ccccc1F)NCCc1ccccc1	inconclusive: 10 µM [inhibitor, single point]	
N#Cc1nc(Cc2cccc3ccccc23)oc1NCc1ccc(F)cc1	inconclusive: 35.5 µM [inhibitor, single point]	
CCOC(=O)c1c(NC2=NS(=O)(=O)c3ccccc32)sc2c1CCCCC2	inconclusive: 3.98 µM [inhibitor, partial curve]	
COc1ccc(NC(=O)C2CCC(C(C)(C)C)CC2)cc1S(=O)(=O)N1CCCCC1 (stereo not drawn)	inconclusive: 15.8 µM [inhibitor, single point]	
Cc1cc(C(=O)NC(=S)Nc2ccccc2N2CCOCC2)ccc1[N+](=O)[O-]	inactive	
CCc1ccc(-c2cc(C(=O)Nc3ccc(S(=O)(=O)NC(C)=O)cc3)c3ccccc3n2)cc1	inconclusive: 3.16 µM [inhibitor, single point]	
COc1ccccc1N1CCN(C(=O)NC23CC4CC(CC(C4)C2)C3)CC1	inconclusive: 1.12 µM [activator, full curve]	
CCn1c(C)c(C)c2cc(C(=O)Nc3cccc(Cl)c3)ccc21	inconclusive: 35.5 µM [inhibitor, single point]	
Cc1nn(Cc2ccc(Cl)cc2)c(C)c1NC(=O)c1ccc([N+](=O)[O-])cc1	inconclusive: 35.5 µM [inhibitor, single point]	
CCCCC(=O)NCc1ccccc1Cl	inconclusive: 31.6 µM [inhibitor, single point]	

Grouped by structure, the compounds so far containing a cyano group (two)
SMILES	Potency	activity change, negative = inhibition
CCCCN(C)C1=CC2=CC(=C(C#N)C#N)CCC2CC1 (stereo not drawn)	active: 0.316 µM	
N#Cc1nc(Cc2cccc3ccccc23)oc1NCc1ccc(F)cc1	inconclusive: 35.5 µM [inhibitor, single point]	

(list continues)

SMILES	Potency	activity change, negative = inhibition
COc1cc(S(=O)(=O)NCC2OCCc3ccccc32)ccc1-n1cnnn1 (stereo not drawn)	inconclusive: 11.2 µM [inhibitor, partial curve]	
Cc1ccc(S(=O)(=O)N(C)c2ccc(C(=O)N3CCc4ccccc4C3)cc2)cc1	inconclusive: 35.5 µM [inhibitor, single point]	
COc1ccc(CCNc2cc(N3CCN(C(=O)c4ccccc4F)CC3)ccc2[N+](=O)[O-])cc1OC	active: 3.98 µM	
OCCN1CCN(c2ncnc3c2c(-c2ccccc2)cn3-c2ccc(Br)cc2)CC1	inconclusive: 25.1 µM [inhibitor, single point]	
COc1ccccc1C(=O)C1CCCN(Cc2cn[nH]c2C2CCCCC2)C1 (stereo not drawn)		inactive: 4.14% [at 9.22 µM]
O=C(CSc1ccc(Cl)cc1)N1CCN(c2ccc([N+](=O)[O-])cc2Cl)CC1	inconclusive: 2.82 µM [inhibitor, partial curve]	
CN(c1ccccc1)S(=O)(=O)c1ccc(C(=O)NCC2CCCO2)cc1 (stereo not drawn)	inactive	
CC(C)(C)S(=O)(=O)c1ccccc1C(=O)O	inactive	
O=C(NCc1ccccc1F)C1CCCN(C(=O)NC2CCCCC2)C1 (stereo not drawn)	inactive	
CC(C)(C)c1ccc(C(=O)NN2C(=O)CSC2=S)cc1		inactive: -14.1% [at 9.22 µM]
Cc1ccc(-c2nc3cnccn3c2Nc2ccc3c(c2)OCCO3)o1	inactive	
OCCNCc1cc(Br)ccc1OCc1ccccc1	inconclusive: 5.62 µM [inhibitor, single point]	
O=C(c1cc(C2CC2)nc2ccc(Br)cc12)N1N=C(C(F)F)CC1(O)C(F)F (stereo not drawn)	inconclusive: 35.5 µM [inhibitor, single point]	
OC[C@H]1O[C@@H](n2cnc3c(Nc4ccccc4)ncnc32)[C@H](O)[C@@H]1O	inconclusive: 2.51 µM [activator, partial curve, poor fit]	
COc1ccc(/C=C/C(=O)NCC(=O)N2CCC(N(C)CCN3CCOCC3)CC2)cc1OC	inactive	
O=c1c2ccccc2nc2n1C(CSCc1ccc(Cl)cc1Cl)CS2 (stereo not drawn)	active: 8.91 µM	
N=c1oc2c3c4c(cc2cc1C(=O)Nc1ccccc1)CCCN4CCC3	inconclusive: 11.2 µM [inhibitor, partial curve]	
O=C(NCCC(=O)N1CCN(c2ncccn2)CC1)c1ccccc1	inconclusive: 6.31 µM [inhibitor, partial curve, poor fit]	
O=C1c2cccnc2C(Nc2ccc(Cl)cc2)N1Cc1cccs1 (stereo not drawn)	inactive	
O=C(COc1ccc(Br)cc1)N1CCC(c2ccccc2)C1 (stereo not drawn)	inconclusive: 35.5 µM [inhibitor, single point]	
O=C(CCCOc1ccccc1)NCC1CCCO1 (stereo not drawn)	inconclusive: 35.5 µM [inhibitor, partial curve]	
